# Reference: PubChem BioAssay AID1259354 (Paczesny and Yang Labs, IUPUI and University of Michigan, 2018)
# Amino acid sequences for entries named in this document (tags omitted). A change or cut given only in a name is not applied to a line headed by its entry.
# UniProt Q01638: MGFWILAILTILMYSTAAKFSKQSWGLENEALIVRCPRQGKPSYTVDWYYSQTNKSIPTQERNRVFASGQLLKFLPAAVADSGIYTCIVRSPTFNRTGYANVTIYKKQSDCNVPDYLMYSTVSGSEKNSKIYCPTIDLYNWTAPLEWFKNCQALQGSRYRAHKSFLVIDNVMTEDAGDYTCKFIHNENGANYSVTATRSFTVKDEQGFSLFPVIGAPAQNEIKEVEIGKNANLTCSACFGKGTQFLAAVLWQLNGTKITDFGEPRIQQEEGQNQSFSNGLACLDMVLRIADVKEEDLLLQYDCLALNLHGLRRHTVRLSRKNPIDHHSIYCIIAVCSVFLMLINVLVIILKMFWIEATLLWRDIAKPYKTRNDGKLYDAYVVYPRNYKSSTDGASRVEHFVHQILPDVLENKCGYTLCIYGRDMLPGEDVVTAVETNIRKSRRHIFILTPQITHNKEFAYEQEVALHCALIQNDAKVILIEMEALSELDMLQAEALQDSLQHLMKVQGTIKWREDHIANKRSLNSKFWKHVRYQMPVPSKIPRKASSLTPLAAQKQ
# “And” between values parts separate entries of the source, which are not always exact repeats. Equal values may be shown once. In all, about 78,000 compounds went through this assay and about 1,800 (2.3%) were called active. Inconclusive results, whose numbers are uncertain, are shown with a selection of clear calls. No stated cut-off is given here; in the data, active means inhibition above about 30%; inconclusive means mostly about 10% to 28%; inactive means weaker than that.
# Biological target: Interleukin-1 receptor-like 1 (Homo sapiens) (UniProt Q01638)
# Test: blocks human ST2 binding to IL-33, primary screen, biochemical, AlphaLISA (AID 1259354)
# Conditions: AlphaLISA ST2-Fc/biotin-IL-33 interaction, 1 h; at 17 µM, active compounds read high
row,SMILES,inhibition
1,CN(C(=O)c1cccs1)C(Cc1ccccc1)C1CCN(C(=O)CC2=CCCCC2)CC1 (stereo not drawn),inconclusive: 15%
2,O[C@@H]1C[C@@H](c2nc(-c3ccc(F)cc3)no2)N(Cc2ccc3c(c2)OCO3)C1,inconclusive: 17%
3,O=C(CCC1CCCCC1)Nc1ccccc1Br,inconclusive: 13%
4,O=C(NCCC1=CCCCC1)c1cc(=O)[nH]c2ccc(S(=O)(=O)N3CCCC3)cc12,inconclusive: 13%
5,CC1=NN(c2ccccc2)C(=O)/C1=C/c1ccc(-c2cccc(C(=O)O)c2)o1,inconclusive: 25%
6,CC(C)CCNC(=O)c1cccn2c(=O)c3cc4ccccc4cc3nc12,inconclusive: 16%
7,CSc1ccc(-c2nc(CSCC(=O)NCCN3CCCC3)c(C)o2)cc1,inconclusive: 14%
8,O=c1c2cnn(-c3ccccc3)c2ncn1Cc1ccc(Cl)cc1Cl,inactive
9,Cn1c2c(c(=O)n(C)c1=O)C(c1cccc(Br)c1)C(C#N)=C(N)O2 (stereo not drawn),inconclusive: 21%
10,O=c1c2cc3c(=O)n(CCO)c(=O)c3cc2c(=O)n1CCO,inconclusive: 14%
11,Fc1cccc(N2N=C(/C=C/c3cccs3)CC2c2cccs2)c1 (stereo not drawn),active: 32%
12,CNS(=O)(=O)c1ccc(CN(Cc2ccsc2)Cc2ccco2)cc1,inconclusive: 10%
13,CCCCc1nnc2n1N=C(c1ccc(Br)cc1)CS2,inconclusive: 10%
14,COc1ccc(-n2nc(C(=O)N3CCCCC3)c3c4ccccc4n(C)c3c2=O)cc1Cl,inconclusive: 13%
15,O=C1CCC(=O)N1c1ccc(-c2ccc(N3C(=O)CCC3=O)cc2)cc1,inconclusive: 18%
16,Cc1ccc(Br)c(N2C(=O)Nc3cc(Cl)c(Cl)cc3N2O)c1,inconclusive: 15%
17,CN1CCC(N(C)c2ccc(C(=O)N3CCC(CCn4cccn4)CC3)cn2)C1 (stereo not drawn),inactive
18,CN1CC(=O)N2CCN(C(=O)CN3CCc4ccccc4C3)CC2C1=O (stereo not drawn),inconclusive: 12%
19,CCCN(CCC)c1nc(C)nc2sc(C(=O)OCC)c(C)c12,inconclusive: 11%
20,Cc1ccccc1-c1nc(CSCC(=O)NC2CCCC(C)C2C)c(C)o1 (stereo not drawn),inconclusive: 14%
21,COCc1cc(CC2(NC3CCN(C(C)=O)CC3)COC2)no1,inconclusive: 16%
22,Cc1c(OCC(=O)O)ccc2c(-c3ccccc3)cc(=O)oc12,inconclusive: 22%
23,Cc1ccn2cc(-c3ccc(F)cc3)nc2c1,inconclusive: 11%
24,CCN(CC)C(=O)c1nn(-c2ccc(OC)c(Cl)c2)c(=O)c2c1c1ccccc1n2C,inconclusive: 17%

# Two records picked at random from the list so far, as already listed:
row,SMILES,inhibition
2,O[C@@H]1C[C@@H](c2nc(-c3ccc(F)cc3)no2)N(Cc2ccc3c(c2)OCO3)C1,inconclusive: 17%
21,COCc1cc(CC2(NC3CCN(C(C)=O)CC3)COC2)no1,inconclusive: 16%

# Taken from above.
# O=C(NCCC1=CCCCC1)c1cc(=O)[nH]c2ccc(S(=O)(=O)N3CCCC3)cc12 | inhibition: inconclusive: 13%
# O=C1CCC(=O)N1c1ccc(-c2ccc(N3C(=O)CCC3=O)cc2)cc1 | inhibition: inconclusive: 18%
# CN1CC(=O)N2CCN(C(=O)CN3CCc4ccccc4C3)CC2C1=O (stereo not drawn) | inhibition: inconclusive: 12%

# Additional entries.

row,SMILES,inhibition
1,CCCCN(Cc1ccccc1)S(=O)(=O)c1ccc2c(c1)CC(C)N2C(C)=O (stereo not drawn),inactive
2,Cc1ccc(N(C(=O)c2ccccc2Cl)C2C=CS(=O)(=O)C2)cc1C (stereo not drawn),inactive
3,O=C(c1cccc2c1OCCO2)N1CCN(c2ccc(Cl)cc2[N+](=O)[O-])CC1,inconclusive: 19%
4,CCn1ccnc1CN(C)CC(=O)Nc1ccc(Cl)cc1F,inactive
5,COc1ccccc1N1C(=O)c2c(C)nc3ccccc3c2C1=O,inconclusive: 18%
6,O=C(c1cc(Cl)ccc1Cl)N1CCN(S(=O)(=O)c2cc3c4c(c2)CCN4C(=O)CC3)CC1,inconclusive: 16%
7,COc1ccc(N2C(=O)C3CCCN3C2c2cccc(C)c2)cc1Cl (stereo not drawn),inconclusive: 12%
8,COC(=O)C(CCSC)NC(=O)c1cccs1 (stereo not drawn),inconclusive: 22%
9,COc1ccc(NC(=O)C(NS(=O)(=O)c2ccc3c(c2)oc(=O)n3C)C(C)C)cc1 (stereo not drawn),inconclusive: 15%
10,COc1cccc(CN2CCCC(NC(=O)c3ccc4[nH]ccc4c3)C2)c1 (stereo not drawn),inactive
11,CC(C(=O)O)n1c(Cc2ccccc2)n[nH]c1=O (stereo not drawn),inactive
12,COc1ccc(/C=C2\C(=O)Nc3ccc(Br)cc32)c(OC)c1OC,inactive
13,CCOC(=O)CC(=O)CSc1nc(-c2cccc(C)c2)ns1,inconclusive: 10%
14,COc1cc(C2NC(=O)NC(C)=C2[N+](=O)[O-])ccc1O (stereo not drawn),inconclusive: 22%
15,COc1ccccc1/C=C/CN1CCCC(CCC(=O)Nc2cc(Cl)ccc2OC)C1 (stereo not drawn),inconclusive: 26%
16,O=c1cc(-c2nc3ccccc3s2)oc2ccccc12,inconclusive: 12%
17,CC(C)c1nccn1CCCNC(=O)c1ccc(-c2ccc3c(c2)OCO3)nc1,inconclusive: 11%
18,O=C(CSc1nc2c(c(=O)n1-c1ccc(Cl)cc1)SCC2)Nc1cccc(Cl)c1,inactive
19,Fc1ccc(-c2cn3ccsc3n2)cc1,inactive
20,Cc1cccn2c(CNC3CCC4(CCNCC4)CC3)cnc12,inactive
21,O=C1CC(c2cccs2)CC2=C1C(c1cccc(F)c1)Nc1ccccc1N2 (stereo not drawn),active: 30%
22,COc1cc(-c2nc3ccccn3c2N)ccc1O,inconclusive: 10%
23,COc1cccc(N(C(C)=O)C2=C(N3CCCC3)C(=O)c3ccccc3C2=O)c1,inconclusive: 25%
24,CCOCCCNC(=O)CN1C(=O)/C(=C/c2ccccc2F)Sc2ccccc21,inconclusive: 24%

row,SMILES,inhibition
1,O=C(Nc1ccccc1)N1C[C@@H]2C[C@H](C1)c1ccc(-c3ccc(OC(F)(F)F)cc3)c(=O)n1C2,active: 33%
2,Cc1c(NC(=O)COc2ccc(Br)cc2)c(=O)n(-c2ccccc2)n1C,inconclusive: 11%
3,CCOc1ccc2nc(SCC(=O)C(C)(C)C)[nH]c2c1,inactive
4,COc1ccc(Nc2nc3nonc3nc2Nc2ccc(OC)cc2)cc1,inconclusive: 15%
5,N#Cc1c2n(c3c(=O)[nH]cnc13)CCCCC2,inconclusive: 17%
6,COc1ccc(CCNC(=O)N2CCCCC2CCN2CCCC2=O)cc1 (stereo not drawn),inactive
7,Cc1c(Nc2ccc([N+](=O)[O-])ccc2=O)c(=O)n(-c2ccccc2)n1C,inconclusive: 17%
8,Cc1cc(CC(C)NC(=O)c2csc3nc(-c4ccccc4)cn23)n[nH]1 (stereo not drawn),inactive
9,CC(C)(C)C(=O)Nc1nc(-c2cc(Cl)sc2Cl)cs1,inconclusive: 20% and inconclusive: 10%
10,CCc1[nH]c2c(CNC(=O)C3=NNC(=O)CC3)cc(C)cc2c1C,inconclusive: 18%
11,Cc1cccc(Oc2nc3c(c(=O)n(C)c(=O)n3C)n2Cc2ccccc2F)c1,inconclusive: 24%
12,Cc1cccc(NC(=O)Cn2c(=O)n(-c3ccc(F)cc3F)c(=O)c3sccc32)c1,inactive
13,CC(=O)c1ccc(C(=O)N2CCCC(Nc3ccc(C(C)C)cc3)C2)s1 (stereo not drawn),inconclusive: 12%
14,CCN(CC)S(=O)(=O)c1ccc(C(=O)Nc2nnc(-c3cccc(OC)c3)o2)cc1,inconclusive: 10%
15,FC(F)(F)c1cc(-c2ccc(Cl)cc2)nc(-n2cccn2)n1,inactive
16,CCOc1ccccc1C(=O)NC1CC(=O)N(c2ccc(F)cc2)C1 (stereo not drawn),inconclusive: 10%
17,CC1=C[C@@H](CNS(C)(=O)=O)[C@H](C(C)C)C[C@H]1Cc1nnc(-c2ccccc2F)o1,inconclusive: 14%
18,O=C(COc1ccccc1Cl)Nc1ccc2oc(-c3ccncc3)nc2c1,inconclusive: 12%
19,O=C(O)c1ccc2c(c1)C(=O)/C(=C\c1ccc([N+](=O)[O-])o1)C2=O,active: 91%
20,CCc1nc2ccccc2c(NC(=O)CNC(C)(C)C)c1C,inconclusive: 11%
21,COCC(=O)N1CCCC(C(=O)Nc2cccc(-c3cccc(C)c3)c2)C1 (stereo not drawn),inconclusive: 13%
22,Cc1cc(O)c(C(C)C)cc1NC(=O)c1ccccc1Br,inconclusive: 14%
23,COc1ccc(N2CN=c3s/c(=C\c4ccccc4)c(=O)n3C2)cc1,inconclusive: 25%
24,O=S(=O)(NCCC12CC3CC(CC(C3)C1)C2)c1cc(Cl)ccc1Cl,inconclusive: 22%

row,SMILES,inhibition
1,O=[N+]([O-])c1ccc(-c2nc(NCCCN3CCOCC3)c3ccccc3n2)cc1,inconclusive: 23%
2,O=C(Cn1c(NCCO)nc2ccccc21)c1ccc(Cl)cc1Cl,inconclusive: 14%
3,COCCc1noc(CN2CCC(N3CCCC3=O)CC2)n1,inconclusive: 14%
4,COc1ccc(/C=C/c2nc3ccccc3c(=O)n2-c2ccc(OC)c(OC)c2)cc1,inconclusive: 15%
5,Cn1nc(-c2ccc(Cl)cc2)c2cc(C(=O)Nc3cccc(C#N)c3)sc21,inconclusive: 21%
6,O=C(NCCC1=CCCCC1)c1cc(=O)[nH]c2ccc(S(=O)(=O)N3CCCCCC3)cc12,inactive
7,COc1ccc(C(=O)N[C@H]2CO[C@H]3[C@@H]2OC[C@H]3OC(=O)Nc2cccc3ccccc23)cc1,inconclusive: 19%
8,CCCCC1C=CCN1C(=O)Cc1ccccn1 (stereo not drawn),inconclusive: 15%
9,Cc1ccc(-c2cc(C(=O)N3CCCC3Cn3cccn3)n[nH]2)o1 (stereo not drawn),inconclusive: 15%
10,Nc1cc(C(=O)NCCCc2nc3ccccc3s2)[nH]n1,inactive
11,Cc1c(CN2CCCC(N3CCCC3=O)C2)[nH]c2ccc(F)cc12 (stereo not drawn),inactive
12,CCSc1nnc2c(n1)OC(C)N(C(=O)CC)c1ccccc1-2 (stereo not drawn),inconclusive: 11%
13,COc1ccccc1C(Nc1cc(C)ccn1)c1ccc2cccnc2c1O (stereo not drawn),inconclusive: 23%
14,CC(C)(C)c1ccc(C(O)CCCN2CCC(C(O)(c3ccccc3)c3ccccc3)CC2)cc1 (stereo not drawn),inconclusive: 16%
15,COc1cc(OC)c(C2C(C(N)=O)=C(C)Nc3ncnn32)cc1OC (stereo not drawn),inconclusive: 14%
16,CC1=CCC(c2nnc(C)o2)C(c2ccc(Cl)cc2)C1 (stereo not drawn),inactive
17,CSc1cccc(NC(=O)C2CCN(C(=O)c3ccc(F)cc3)CC2)c1,inconclusive: 14%
18,CC(C)(O)C#Cc1ccc(CN2CCCN(C(=O)C3CCC3)CC2)s1,inconclusive: 18%
19,COc1ccc(Br)cc1/C=C1/C(=O)NN(c2ccc(C)c(Cl)c2)C1=O,inconclusive: 22%
20,O=C(Nc1cccnc1)c1cc2ccccn2n1,inconclusive: 19%
21,O=C(NCc1nccs1)c1nn(Cc2ccccc2)c2c1CN(C(=O)c1cccnc1)CC2,inconclusive: 21%
